Test system: HUVEC cells
Assay: WST-1 cell proliferation assay
Type: cell-based, human
Experimental: Figure 4 PsA Potently Activates HUVEC Proliferation. […] Note saturation kinetics. Cytotoxicity is illustrated as a vertical dashed line at 1.5 × 10^−5 M in all vehicles tested. The percentage increase was calculated as [100 × (T/C)] where T/C is defined as […]. Data are presented as mean ± SEM (n = 16).
For each experiment cells were split at 80% confluence. All experiments were conducted between generations 4 and 10.
HUVEC were harvested from a T-75 plate by trypsinization and resuspended in EGM-2 complete culture media. Cells were plated at 500 cells per well of a 96-well plate and incubated overnight at 37 °C in a 5% CO2 atmosphere. EGM-2 complete culture media was removed and replaced with starvation media for 8 h. During this time, drug dilutions were prepared in growth factor depleted media. Starvation media was replaced with drug dilution in growth factor depleted media and incubated at 37 °C in a 5% CO2 atmosphere. After 41 h, 10 µL of WST-1 reagent was added to each well and incubated for 1 h. Plates were then read on a multiplate reader at 450 nm with background reference of 650 nm.

## CC(C)=C[C@H]1C[C@H](C)[C@H]2CC[C@H](C)c3c(O[C@@H]4OC[C@@H](O)[C@H](O)[C@H]4O)c(O)c(C)c1c32 [Analog 4, Pseudopterosin A]
PsA in 0.016% Cremophor EL
  nH: 2.51
PsA in 0.05% HPβCD
  nH: 0.95
After 5 days, 1.0 × 10^−7 M PsA, estimated from Nt = Ninitial e^(rate × time)
  estimated cell count: 125,000
